# Measurements published in publication PMC2861688.
# The chains behind the UniProt entries cited, without tags or fusion partners.
# UniProt Q9Y297: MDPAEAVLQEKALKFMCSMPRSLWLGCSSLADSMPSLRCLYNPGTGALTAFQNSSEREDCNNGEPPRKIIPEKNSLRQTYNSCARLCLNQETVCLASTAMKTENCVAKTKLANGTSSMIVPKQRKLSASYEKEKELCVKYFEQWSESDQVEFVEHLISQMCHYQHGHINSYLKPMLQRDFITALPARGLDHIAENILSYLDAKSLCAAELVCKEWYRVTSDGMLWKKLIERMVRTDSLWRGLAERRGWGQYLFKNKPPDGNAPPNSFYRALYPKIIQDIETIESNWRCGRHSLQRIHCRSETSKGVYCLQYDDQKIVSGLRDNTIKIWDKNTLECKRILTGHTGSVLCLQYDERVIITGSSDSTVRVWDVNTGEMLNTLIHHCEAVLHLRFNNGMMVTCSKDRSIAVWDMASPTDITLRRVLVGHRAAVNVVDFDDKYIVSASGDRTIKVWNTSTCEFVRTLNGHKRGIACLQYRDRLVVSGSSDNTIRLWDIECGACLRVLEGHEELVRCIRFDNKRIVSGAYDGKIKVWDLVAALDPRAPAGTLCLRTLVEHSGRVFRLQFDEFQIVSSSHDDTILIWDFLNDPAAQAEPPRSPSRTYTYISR
# No constants are given. Whether binding was seen depends on the method and setting. In cells and extracts the contact can be indirect. Some binding calls cover weakened binding; strength is not graded here.
# Biological target: FLAG-tagged human β-TrCP1 (human) (UniProt Q9Y297)
# Assay: co-IP
substance,measurement,value
"wild-type HIV-1 Vpu (codon-optimized, NL4-3 variant) (from UniProt P05923 1-81)",binding,binds
